Results from the supplement of paper PMC11348887.
Structures can show the parent of a compound that is named as a salt. The list shows a part of the results. Most entries show no effect beyond the scatter of the controls. *1 amine or outer side, *2 acyl side, *3 side chain or, on linkers, in order; H or OH if unused. Where a SMILES comes first, the peptide text is derived from it. Bridges are numbered along the chain shown (N, C = ends). [ ]: non-standard residue; d: D form. The star is where a group is joined. ξ: configuration not given here. X1 = N=C1NCCC([C@H](N[*:1])C(=O)[*:2])N1; ΔAla(Z-3-ureido) = NC(=O)N/C=C(\N)C(=O)O; ξβ3hOrn = NCCCC(N)CC(=O)*; Dap = NC[C@H](N)C(=O)O

Legend:
Conditions in all cases: 5 µM; treatment: days 7-14 after plating, readout day 21
[1] = test system: hPSC-derived cortical neurons (WA09); test: nucleus area z-score vs screen plate; higher = larger nuclei (more mature)
[2] = test system: hPSC-derived cortical neurons (WA09); test: total neurite length per nucleus (MAP2) z-score; higher = more neurite growth
[3] = test system: hPSC-derived cortical neurons (WA09); test: nucleus roundness z-score vs screen plate; higher = rounder nuclei (more mature)
[4] = test system: hPSC-derived cortical neurons (WA09); test: KCl-induced FOS+/EGR-1+ double-positive nuclei fraction z-score (KCl minus unstimulated); higher = stronger activity-induced IEG response

Compound | nucleus area z-score [1] | total neurite length per nucleus (z-score) [2] | nucleus roundness z-score [3] | KCl-induced FOS+/EGR-1+ double-positive nuclei fraction z-score [4]
Cn1cc(-c2ccc3nnc(Sc4ccc5ncccc5c4)n3n2)cn1 | -0.694 | 0.15 | 0.447 | -0.228
CC(C)C[C@H](NC(=O)[C@@H](NC(=O)c1cccc(-c2ccccc2)n1)[C@@H](C)O)B(O)O | -7.26 | -2.91 | -1.03 | -0.214
C#C[C@]1(O)CC[C@H]2[C@@H]3CCc4cc(O)ccc4[C@H]3CC[C@@]21C [Ethinyl Estradiol] | -0.395 | 0.512 | 1.1 | 1.7
COc1ccc([C@@H]2CC(=O)c3c(O)cc(O[C@@H]4O[C@H](CO)[C@@H](O)[C@H](O)[C@H]4O[C@@H]4O[C@@H](C)[C@H](O)[C@@H](O)[C@H]4O)cc3O2)cc1O [Neohesperidin] | -3.01 | -1.12 | -0.41 | 0.831
Cc1coc2c1C(=O)C(=O)c1c-2ccc2c1CCCC2(C)C [Tanshinone IIA] | -0.0564 | 0.0321 | 0.704 | 0.157
O=C(O)CCCC[C@@H]1SC[C@@H]2NC(=O)N[C@@H]21 [Biotin (Vitamin B7)] | -0.252 | -0.119 | 0.0781 | 1.94
O=C(O)C1=C[C@@H](O)[C@@H](O)[C@H](O)C1 [Shikimic Acid] | 0.51 | 0.472 | -0.384 | -0.159
O=C(Nc1cc(C(F)(F)F)cc(C(F)(F)F)c1)c1cc(Cl)ccc1O | 0.59 | -0.369 | -0.878 | 0.471
C[C@H](NC(=O)CCc1nc2ccccc2c(=O)[nH]1)c1ccccc1 | 0.593 | 0.313 | 0.0206 | 0.797
Nc1cc(C(F)(F)F)c(-c2cc(N3CCOCC3)nc(N3CCOCC3)n2)cn1 [BKM120 (NVP-BKM120_ Buparlisib)] | -7.13 | -2.34 | -0.417 | -0.73
COc1ccc2[nH]c([S@@+]([O-])Cc3ncc(C)c(OC)c3C)nc2c1 [Esomeprazole Sodium] | 1.91 | 0.0289 | -1.35 | -0.798
O=C(NNc1nc2cc(F)ccc2n2cccc12)c1cnccn1 | -3.82 | 0.684 | -0.806 | -8.94
O=C1c2c(O)cc(O)cc2OC(c2ccc(O)c(O)c2)C1O (stereo not given) [Taxifolin (Dihydroquercetin)] | 0.343 | 0.56 | -0.164 | 0.2
CCC(CC)CC1(C(=O)Nc2ccccc2SC(=O)C(C)C)CCCCC1 | 1.75 | -0.007 | -0.0117 | -1.08
O=c1[nH]c(C2CCCN2)nc2c1oc1ccc(Cl)cc12 (stereo not given) | -0.639 | -1.19 | -0.776 | 0.0705
CNC1CCCN(c2c(F)cc3c(=O)c(C(=O)O)cn(C4CC4)c3c2OC)C1 (stereo not given) [Balofloxacin] | -0.355 | -0.0465 | 0.626 | 0.387
Nc1ccc(/N=N/c2ccccc2)c(N)n1 [Phenazopyridine HCl] | 0.0555 | -0.145 | 0.398 | 1.17
CN1CCCN(C(=O)c2cccc(-c3ccc(/C=C4/C(=O)Nc5ccc(Cl)cc54)o3)c2)CC1 | -17.8 | -6.55 | -6.21 | 1.71
CC(=O)O[C@H]1C[C@@H]2CC[C@@H]3[C@H](CC[C@@]4(C)[C@H]3C[C@H]([N+]3(C)CCCCC3)[C@@H]4OC(C)=O)[C@@]2(C)C[C@@H]1N1CCCCC1 [Vecuronium Bromide] | 1.02 | -0.505 | 0.177 | 1.15
CSc1nc2cc(Cl)c(Oc3cccc(Cl)c3Cl)cc2[nH]1 [Triclabendazole] | 1.74 | 0.191 | 0.107 | -0.416
CC(=O)Nc1cccc2c1c(Sc1ccc(Cl)cc1)c(C)n2CC(=O)O | -0.326 | 0.256 | -0.457 | -1.28
Cc1oncc1C(=O)Nc1ccc(C(F)(F)F)cc1 [Leflunomide] | 1.5 | 1.5 | 0.529 | 1.38
CO[C@@H](C)Cn1c(=O)n(C)c2cnc3ccc(-c4cncc(C(C)(C)O)c4)cc3c21 | -7.22 | -3.11 | -3.77 | -1.15
OCCOCCN1CCN(C2=Nc3ccccc3Sc3ccccc32)CC1 [Quetiapine Fumarate] | -1.07 | -0.654 | 0.833 | 1.59
Cc1cc2c(F)c(Oc3ncnn4cc(OC[C@@H](C)O)c(C)c34)ccc2[nH]1 | 0.115 | 0.53 | 0.531 | -0.0669
CCOc1cc2ncc(C#N)c(Nc3ccc(OCc4ccccn4)c(Cl)c3)c2cc1NC(=O)/C=C/CN(C)C [Neratinib (HKI-272)] | -8.66 | -2.71 | -5.62 | -1.23
CCc1cccc2c3c([nH]c12)C(CC)(CC(=O)O)OCC3 (stereo not given) [Etodolac] | 0.221 | -0.0948 | 0.482 | 0.587
CC(C)C[C@H](NC(=O)CNC(=O)c1cc(Cl)ccc1Cl)B1OC(=O)C(CC(=O)O)(CC(=O)O)O1 | -14.6 | -5.81 | -5.23 | -1.44

Rewritten in markdown: 13 of the compounds above

| Compound | nucleus area z-score [1] | total neurite length per nucleus (z-score) [2] | nucleus roundness z-score [3] | KCl-induced FOS+/EGR-1+ double-positive nuclei fraction z-score [4] |
| --- | --- | --- | --- | --- |
| Nc1cc(C(F)(F)F)c(-c2cc(N3CCOCC3)nc(N3CCOCC3)n2)cn1 [BKM120 (NVP-BKM120_ Buparlisib)] | -7.13 | -2.34 | -0.417 | -0.73 |
| COc1ccc2[nH]c([S@@+]([O-])Cc3ncc(C)c(OC)c3C)nc2c1 [Esomeprazole Sodium] | 1.91 | 0.0289 | -1.35 | -0.798 |
| O=C(NNc1nc2cc(F)ccc2n2cccc12)c1cnccn1 | -3.82 | 0.684 | -0.806 | -8.94 |
| O=C1c2c(O)cc(O)cc2OC(c2ccc(O)c(O)c2)C1O (stereo not given) [Taxifolin (Dihydroquercetin)] | 0.343 | 0.56 | -0.164 | 0.2 |
| CCC(CC)CC1(C(=O)Nc2ccccc2SC(=O)C(C)C)CCCCC1 | 1.75 | -0.007 | -0.0117 | -1.08 |
| O=c1[nH]c(C2CCCN2)nc2c1oc1ccc(Cl)cc12 (stereo not given) | -0.639 | -1.19 | -0.776 | 0.0705 |
| CNC1CCCN(c2c(F)cc3c(=O)c(C(=O)O)cn(C4CC4)c3c2OC)C1 (stereo not given) [Balofloxacin] | -0.355 | -0.0465 | 0.626 | 0.387 |
| Nc1ccc(/N=N/c2ccccc2)c(N)n1 [Phenazopyridine HCl] | 0.0555 | -0.145 | 0.398 | 1.17 |
| CN1CCCN(C(=O)c2cccc(-c3ccc(/C=C4/C(=O)Nc5ccc(Cl)cc54)o3)c2)CC1 | -17.8 | -6.55 | -6.21 | 1.71 |
| CC(=O)O[C@H]1C[C@@H]2CC[C@@H]3[C@H](CC[C@@]4(C)[C@H]3C[C@H]([N+]3(C)CCCCC3)[C@@H]4OC(C)=O)[C@@]2(C)C[C@@H]1N1CCCCC1 [Vecuronium Bromide] | 1.02 | -0.505 | 0.177 | 1.15 |
| CSc1nc2cc(Cl)c(Oc3cccc(Cl)c3Cl)cc2[nH]1 [Triclabendazole] | 1.74 | 0.191 | 0.107 | -0.416 |
| CC(=O)Nc1cccc2c1c(Sc1ccc(Cl)cc1)c(C)n2CC(=O)O | -0.326 | 0.256 | -0.457 | -1.28 |
| Cc1oncc1C(=O)Nc1ccc(C(F)(F)F)cc1 [Leflunomide] | 1.5 | 1.5 | 0.529 | 1.38 |

Remaining list, next part

Compound | nucleus area z-score [1] | total neurite length per nucleus (z-score) [2] | nucleus roundness z-score [3] | KCl-induced FOS+/EGR-1+ double-positive nuclei fraction z-score [4]
O=C(NCCO[N+](=O)[O-])c1cccnc1 [Nicorandil] | 0.0955 | -0.302 | -0.179 | -0.842
O=C(CCCN1CC=C(n2c(=O)[nH]c3ccccc32)CC1)c1ccc(F)cc1 [Droperidol] | -0.209 | 0.598 | 0.412 | 0.293
C[C@H]1C[C@H]2[C@@H]3CCC4=CC(=O)C=C[C@]4(C)[C@H]3C(=O)C[C@]2(C)[C@@]1(O)C(=O)CO [Meprednisone] | 0.0966 | 0.266 | 0.347 | -0.0405
COc1ccccc1N1CCN(CCCNc2cc(=O)n(C)c(=O)n2C)CC1 [Urapidil HCl] | 0.299 | -0.983 | -1.2 | 0.445
COc1cc(/C=C/C(=O)N2CCC=CC2=O)cc(OC)c1OC [Piperlongumine] | -3.94 | -0.545 | -0.312 | 0.0651
C[C@@H]1NC(=O)[C@@H](N)CNC(=O)[C@H](C2CCNC(=N)N2)NC(=O)/C(=C/NC(N)=O)NC(=O)[C@H](CNC(=O)CC(N)CCCN)NC1=O.N=C1NCC[C@H]([C@@H]2NC(=O)/C(=C/NC(N)=O)NC(=O)[C@H](CNC(=O)C[C@@H](N)CCCN)NC(=O)[C@H](CO)NC(=O)[C@@H](N)CNC2=O)N1 [Capreomycin Sulfate] (H-[Dap]S[Dap](ξβ3hOrn)[ΔAla(Z-3-ureido)][X1]; lactam 1-C) | -0.103 | 1.64 | 0.753 | 1.96
NC(=O)c1cccc2[nH]c(-c3ccc(C4CCCN4)cc3F)nc12 (stereo not given) | -0.541 | -0.415 | 0.504 | -0.567
CCC1=C(C)CN(C(=O)NCCc2ccc(S(=O)(=O)NC(=O)N[C@H]3CC[C@H](C)CC3)cc2)C1=O [Glimepiride] | 0.347 | 0.598 | 0.538 | -0.0534
COc1ccc(-c2cc(=O)c3c(O)cc(O)cc3o2)cc1O [Diosmetin] | 0.869 | -0.686 | -1.29 | -0.889
CC(=O)[C@H]1CC[C@H]2[C@@H]3CC=C4C[C@@H](O)CC[C@]4(C)[C@H]3CC[C@]12C [Pregnenolone] | 0.909 | 0.325 | 0.843 | -0.483
O=C1CCc2ccc(OCCCCN3CCN(c4cccc(Cl)c4Cl)CC3)cc2N1 [Aripiprazole] | 1.09 | 0.0809 | 0.00313 | -0.485
O=C(O)/C=C/c1ccc(Cn2ccnc2)cc1 [Ozagrel HCl] | 0.269 | -0.233 | -0.315 | -0.195
CC(=O)OCC1=C(C(=O)O)N2C(=O)[C@@H](NC(=O)Cc3cccs3)[C@H]2SC1 [Cephalothin] | 0.757 | 1.08 | -0.715 | 0.265
Nc1c2c(nc3ccccc13)CCCC2 [Tacrine HCl] | -0.179 | 0.941 | 0.348 | 1.48
CN1CCC[C@@H]1CCO[C@](C)(c1ccccc1)c1ccc(Cl)cc1 [Clemastine Fumarate] | -1.92 | -1.82 | -0.928 | -0.455
O=C(O)c1ccccc1 [Benzoic Acid] | 1.44 | -0.284 | -0.937 | -0.0188
COC(=O)Nc1nc2cc(C(=O)c3cccs3)ccc2[nH]1 [Nocodazole] | -5.24 | -0.984 | 0.447 | -0.909
Cn1cncc1[C@@](N)(c1ccc(Cl)cc1)c1ccc2c(c1)c(-c1cccc(Cl)c1)cc(=O)n2C [Tipifarnib] | -2.5 | -0.661 | 1.13 | -1.5
O=S(=O)(N=Cc1c(O)ccc2ccccc12)c1cccs1 | 0.542 | 0.155 | 0.0521 | -0.571
CC[C@H](C)C[C@H](C)CCCCCCCCC(=O)N[C@H]1C[C@@H](O)[C@@H](NCCN)NC(=O)[C@@H]2[C@@H](O)CCN2C(=O)[C@H]([C@H](O)CCN)NC(=O)[C@H]([C@H](O)[C@@H](O)c2ccc(O)cc2)NC(=O)[C@@H]2C[C@@H](O)CN2C(=O)[C@H]([C@@H](C)O)NC1=O [Caspofungin Acetate] | 1.93 | 0.0128 | -0.471 | 0.746
C=CC(=O)Nc1cc(Nc2nccc(-c3c[nH]c4ccccc34)n2)c(OC)cc1N(C)CCN(C)C | -11.2 | -2.96 | -3.59 | -14.9
O=C1C(CC[S+]([O-])c2ccccc2)C(=O)N(c2ccccc2)N1c1ccccc1 (racemic) [(+/-)-Sulfinpyrazone] | 0.815 | 0.519 | 0.168 | 0.0282
O=C1c2ccccc2C(=O)C1c1ccccc1 [Phenindione] | -0.203 | 0.373 | 0.0768 | -0.39
FC(F)(F)c1ccc(CNc2ccc(Cc3c[nH]c4ncc(Cl)cc34)cn2)cn1 [Pexidartinib (PLX3397)] | 0.486 | 0.175 | -0.0326 | 0.511
COc1ccc(COc2ccc(Cc3cnc(N)nc3N)cc2OC)cc1 | 1.55 | 0.143 | -0.501 | 0.0295
CNCC[C@@H](Oc1ccccc1C)c1ccccc1 [Atomoxetine HCl] | 0.0224 | 1.1 | 0.458 | 0.911
Cc1cccc(-c2nn3c(c2-c2ccnc4ccc(C(N)=O)cc24)CCC3)n1 | 3.4 | -2.9 | -5 | -0.803
